{
  "source": "PubChem BioAssay AID662",
  "about": "(National Center for Advancing Translational Sciences (NCATS), 2007)",
  "note": "Some of the results follow. The main result of the screen is listed elsewhere. These columns were measured beside it and carry no call. Compounds called inactive in the main read-out are mostly missing here. The note in brackets gives the kind of curve behind each potency; many fits are weak.",
  "data": [
    {"assay": "Cell signaling CRE-BLA (Fsk stim)", "details": "CHO CRE-bla reporter (cAMP response element driving beta-lactamase), forskolin EC10, beta-lactamase ratio; measured here: 460 nm blue channel", "outline": "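The 460nm/530nm emission ratio after CCF4 loading defined %Activity, from which AC50 values were obtained. CRE-bla CHO cells received compound dilution series together with an EC10 level of NKH 477 for 3 hours at 37 degrees Celsius.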", "values": [
      {"smiles": "Cc1nnc(SCC(=O)NCCN2C(=O)CSC2=O)s1", "AC50": "0.1 µM [falling, full curve, poor fit]"},
      {"smiles": "CC(=O)N1CC2(CC2)CC1c1ccccc1", "note": "(stereo not given)", "AC50": "3.16 µM [rising, full curve]"},
      {"smiles": "Cc1cc(NC(=O)CSc2nc3c(c(=O)n2Cc2ccccc2)SC(C)C3)no1", "note": "(stereo not given)", "AC50": "10 µM [rising, partial curve]"},
      {"smiles": "FC(F)(F)c1cccnc1N1CCN(c2ncnc3nc[nH]c23)CC1", "AC50": "10 µM [rising, single point]"},
      {"smiles": "Nc1ccc(S(=O)(=O)c2cccc(N)c2)cc1", "AC50": "0.316 µM [falling, partial curve]"},
      {"smiles": "CC1Cc2ccccc2N1c1ncnc2nc[nH]c12", "note": "(stereo not given)", "AC50": "12.6 µM [rising, single point]"},
      {"smiles": "O=c1c(-c2ccc(Cl)cc2)nc2cncnc2n1Cc1ccccc1Cl", "AC50": "5.01 µM [rising, partial curve]"},
      {"smiles": "CCN(CC)c1ccc2c(Cl)c(Br)c(=O)oc2c1", "AC50": "15.8 µM [rising, partial curve]"},
      {"smiles": "Cc1cc(N2CCCCC2)n2ncc(-c3ccccc3)c2n1", "AC50": "15.8 µM [rising, partial curve]"},
      {"smiles": "O=C(Nc1ccc2c(c1)CCC2)C1CCN(c2c3c(nc4ncnn24)CCC3)CC1", "AC50": "7.94 µM [falling, single point]"},
      {"smiles": "COC(=O)NC1CSCC1OC(=O)CN1C(=O)c2ccccc2C1=O", "note": "(stereo not given)", "AC50": "10 µM [falling, partial curve, poor fit]"},
      {"smiles": "COC(=O)c1ccc(COc2nc(C)cc(C)c2C#N)o1", "AC50": "1.58 µM [rising, partial curve]"},
      {"smiles": "Oc1ccccc1O", "AC50": "3.16 µM [falling, full curve]"},
      {"smiles": "COc1ccccc1-c1nnc(Nc2nc3c(OC)cccc3s2)o1", "AC50": "0.398 µM [rising, full curve]"},
      {"smiles": "CCn1c(=N)c(C(=O)NCc2cccnc2)cc2c(=O)n3cccc(C)c3nc21", "AC50": "15.8 µM [rising, single point]"},
      {"smiles": "COc1cc2c(cc1OC)-c1cc(NCc3ccccn3)nc(=O)n1CC2", "AC50": "6.31 µM [rising, partial curve]"},
      {"smiles": "COc1ccc2[nH]cc(CCNc3nc(-c4ccoc4)nc4ccccc34)c2c1", "AC50": "3.98 µM [rising, partial curve]"},
      {"smiles": "CC1=Nc2ccccc2N=C(NC(=O)CSc2nnnn2-c2ccccc2)C1c1ccccc1", "note": "(stereo not given)", "AC50": "12.6 µM [rising, partial curve, poor fit]"},
      {"smiles": "COc1ccc(CN2CC(C(=O)NCCCN3CCOCC3)CC2=O)cc1", "note": "(stereo not given)", "AC50": "25.1 µM [rising, single point]"},
      {"smiles": "O=C(O)C1C2C=CC3(CN(C/C=C/c4ccccc4)C(=O)C13)O2", "note": "(stereo not given)", "AC50": "0.00316 µM [falling, full curve, poor fit]"},
      {"smiles": "FC(F)(F)c1ccccc1-n1ccnc1", "AC50": "31.6 µM [falling, single point]"},
      {"smiles": "CCC(=O)Nc1ccccc1N1CCN(S(C)(=O)=O)CC1", "AC50": "0.631 µM [rising, single point]"},
      {"smiles": "CCOC(=O)C1=C(C)Nc2ncnn2C1c1cc(Br)ccc1F", "note": "(stereo not given)", "AC50": "15.8 µM [rising, single point]"},
      {"smiles": "Fc1ccc(-c2cc3nc(-c4ccccc4)cc(N4CCOCC4)n3n2)cc1", "AC50": "10 µM [rising, partial curve]"},
      {"smiles": "Nc1c(C(=O)NCc2ccco2)nnn1Cc1ccccc1", "AC50": "10 µM [falling, partial curve, poor fit]"},
      {"smiles": "Nc1cc(OC(=O)c2ccccc2Br)nn1S(=O)(=O)c1ccccc1", "AC50": "10 µM [falling, partial curve]"},
      {"smiles": "COc1ccccc1OCC(=O)N(Cc1nc(-c2ccc(Cl)cc2)no1)C(C)C", "AC50": "25.1 µM [falling, single point]"},
      {"smiles": "COc1ccc(CCNC(=O)C2CCCN(c3nn4c(=O)cc(C)nc4s3)C2)cc1OC", "note": "(stereo not given)", "AC50": "0.00794 µM [falling, full curve, poor fit]"},
      {"smiles": "CN(c1cccc(NC(=O)Cc2ccccc2)c1)S(C)(=O)=O", "AC50": "3.16 µM [falling, partial curve]"},
      {"smiles": "Nc1[nH]nc2nc(N3CCCC3)nc(-c3ccccc3)c12", "AC50": "12.6 µM [rising, partial curve]"},
      {"smiles": "COc1ccccc1CCn1c(=O)c(-c2cccs2)nc2cncnc21", "AC50": "10 µM [rising, partial curve]"},
      {"smiles": "CC1=C(C(=O)OCc2ccccc2)C(c2ccco2)n2ncnc2N1", "note": "(stereo not given)", "AC50": "2.51 µM [rising, full curve]"},
      {"smiles": "CCCCN(CC)C(=O)CSc1cc(=O)n(C)c2ccccc12", "AC50": "12.6 µM [rising, single point]"},
      {"smiles": "FC(F)(F)c1ccccc1-c1ccc2ncnc(NCc3cccnc3)c2c1", "AC50": "7.94 µM [rising, partial curve]"},
      {"smiles": "CCN(C1CCCCC1)S(=O)(=O)c1cn(C)c(=O)n(C)c1=O", "AC50": "12.6 µM [rising, partial curve]"},
      {"smiles": "Brc1ccc(-c2nnc3n2-c2ccccc2CC3)cc1", "AC50": "12.6 µM [rising, single point]"},
      {"smiles": "CN(C)/C=C/C(=O)c1nnn(C2CCCCC2)c1NC1CCCCC1", "AC50": "25.1 µM [falling, single point]"},
      {"smiles": "C=CCN=C(NC#N)SCC(=O)c1cccc(OC)c1", "AC50": "10 µM [falling, partial curve]"},
      {"smiles": "COc1ccc(CCNC(=O)C2CC(=O)N(c3ccc(F)cc3)C2)cc1OC", "note": "(stereo not given)", "AC50": "0.00316 µM [falling, full curve, poor fit]"},
      {"smiles": "Cc1nn(-c2ccccn2)c2c1C(c1ccsc1)C1=C(CCCC1=O)N2", "note": "(stereo not given)", "AC50": "3.16 µM [rising, full curve]"},
      {"smiles": "COc1ccc(-n2nnnc2SCC(=O)Nc2nnc(C)s2)cc1OC", "AC50": "12.6 µM [rising, partial curve]"},
      {"smiles": "COC(=O)c1cc(=O)nc2sccn12", "AC50": "25.1 µM [falling, single point]"},
      {"smiles": "COc1ccc(-c2csc(NC(C)=O)n2)cc1OC", "AC50": "20 µM [rising, single point]"},
      {"smiles": "COc1ccc(Cl)cc1C(=O)n1nc(C)cc1C", "AC50": "1.26 µM [falling, partial curve, poor fit]"},
      {"smiles": "Cc1nc(NCCNC(=O)c2ccco2)c2c(C)c(C)sc2n1", "AC50": "2 µM [rising, partial curve]"}
    ]}
  ]
}
